Reference: PMC11879501
The exact form of at least one protein or probe is not confirmed.

System: GST-FhMYBPA2 (Freesia hybrida 'Red River')
Assay: EMSA
Conditions: EMSA kit (Beyotime) per manufacturer's instructions; pH and temperature not stated; recombinant protein; protein details: N-terminal GST (pGEX-4T-2)

| Sequence | binding result |
| --- | --- |
| GTAATTAGCATATATGGATAGAATTGCATTTAATT (double strand) [FhDFR3 probe] | binds |
| TCAAATCCCAAATGCAACAGAATAACTGATCAGA (double strand) [FhTTG1 probe] | binds |
